Source: PubChem BioAssay AID686938 (Drosophila RNAi Screening Center, 2013)
The deposit covers about 23,000 reagents; below is an unselected part of those that have a named target and a result. In the full data, 75 (0.33%) are marked active. 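Raw plate signals without normalisation; calls rest on plate z-scores that were not deposited; ratio present for only 364 wells.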 Reagents against one gene are numbered here. Names joined by + are all predicted targets of the reagent. Not given: the dose of the treatment.

- Assay: 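Looking for CRAC channel components and the factors controlling them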 (primary screen)
- System: Drosophila S2R+ cells
- Reagents: long dsRNA against Drosophila genes, about 0.25 µg dsRNA per well, roughly 10,000 cells
- Timing: 5 days of knock-down before the calcium assay
- Treatment: thapsigargin (SERCA pump blocker) to empty calcium stores; entry signal taken 4 min after adding it
- Read-out: 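Duplicate raw fluo-4 intensities per well from a plate reader, at rest and four minutes after thapsigargin emptied calcium stores; entry-to-rest ratio filled for only some wells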
- Scale: calcium entry signal: higher = stronger calcium signal after store depletion; resting calcium signal: higher = higher resting calcium signal
- Call rule: 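Hit if the duplicate-averaged plate z-score for entry over resting signal is under −3; wells with weak total dye signal (Fmax z < −2) or more than 5 off-targets removed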
- Meaning of the calls: active = strongly reduced calcium entry; inactive = no strong reduction

CG42557 + CG42558 #1 | calcium entry signal, replicate 1 (fluorescence units) = 4.14e7; calcium entry signal, replicate 2 (fluorescence units) = 3.58e7; resting calcium signal, replicate 1 (fluorescence units) = 1.95e7; resting calcium signal, replicate 2 (fluorescence units) = 1.94e7; activity call = inactive
CG42557 + CG42558 #2 | calcium entry signal, replicate 1 (fluorescence units) = 3.31e7; calcium entry signal, replicate 2 (fluorescence units) = 4.12e7; resting calcium signal, replicate 1 (fluorescence units) = 1.55e7; resting calcium signal, replicate 2 (fluorescence units) = 1.85e7; activity call = inactive
CG5174 | calcium entry signal, replicate 1 (fluorescence units) = 3.51e7; calcium entry signal, replicate 2 (fluorescence units) = 4.75e7; resting calcium signal, replicate 1 (fluorescence units) = 1.60e7; resting calcium signal, replicate 2 (fluorescence units) = 2.18e7; activity call = inactive
CG30457 | calcium entry signal, replicate 1 (fluorescence units) = 4.84e7; calcium entry signal, replicate 2 (fluorescence units) = 1.71e7; resting calcium signal, replicate 1 (fluorescence units) = 2.17e7; resting calcium signal, replicate 2 (fluorescence units) = 9.74e6; activity call = inactive
S2P (site-2 protease) | calcium entry signal, replicate 1 (fluorescence units) = 3.16e7; calcium entry signal, replicate 2 (fluorescence units) = 3.81e7; resting calcium signal, replicate 1 (fluorescence units) = 1.65e7; resting calcium signal, replicate 2 (fluorescence units) = 1.67e7; activity call = inactive
CG18178 | calcium entry signal, replicate 1 (fluorescence units) = 5.04e7; calcium entry signal, replicate 2 (fluorescence units) = 3.84e7; resting calcium signal, replicate 1 (fluorescence units) = 3.17e7; resting calcium signal, replicate 2 (fluorescence units) = 1.62e7; activity call = inactive
CG10710 | calcium entry signal, replicate 1 (fluorescence units) = 3.01e7; calcium entry signal, replicate 2 (fluorescence units) = 4.68e7; resting calcium signal, replicate 1 (fluorescence units) = 1.51e7; resting calcium signal, replicate 2 (fluorescence units) = 2.14e7; activity call = inactive
CG3356 | calcium entry signal, replicate 1 (fluorescence units) = 4.17e7; resting calcium signal, replicate 1 (fluorescence units) = 2.18e7; activity call = inactive
U4-U6-60K (U4-U6 small nuclear riboprotein factor 60K) | calcium entry signal, replicate 1 (fluorescence units) = 2.96e7; calcium entry signal, replicate 2 (fluorescence units) = 3.28e7; resting calcium signal, replicate 1 (fluorescence units) = 1.57e7; resting calcium signal, replicate 2 (fluorescence units) = 2.55e7; activity call = inactive
CG3687 | calcium entry signal, replicate 1 (fluorescence units) = 4.21e7; calcium entry signal, replicate 2 (fluorescence units) = 5.49e7; resting calcium signal, replicate 1 (fluorescence units) = 1.74e7; resting calcium signal, replicate 2 (fluorescence units) = 2.39e7; activity call = inactive
frj (farjavit) | calcium entry signal, replicate 1 (fluorescence units) = 4.26e7; resting calcium signal, replicate 1 (fluorescence units) = 2.34e7; activity call = inactive
beat-VI (beaten path VI) #1 | calcium entry signal, replicate 1 (fluorescence units) = 3.53e7; calcium entry signal, replicate 2 (fluorescence units) = 5.34e7; resting calcium signal, replicate 1 (fluorescence units) = 1.75e7; resting calcium signal, replicate 2 (fluorescence units) = 2.19e7; activity call = inactive
beat-VI (beaten path VI) #2 | calcium entry signal, replicate 1 (fluorescence units) = 3.21e7; calcium entry signal, replicate 2 (fluorescence units) = 5.21e7; resting calcium signal, replicate 1 (fluorescence units) = 1.72e7; resting calcium signal, replicate 2 (fluorescence units) = 2.09e7; activity call = inactive
Obp56b (Odorant-binding protein 56b) | calcium entry signal, replicate 1 (fluorescence units) = 6.37e7; calcium entry signal, replicate 2 (fluorescence units) = 4.63e7; resting calcium signal, replicate 1 (fluorescence units) = 2.56e7; resting calcium signal, replicate 2 (fluorescence units) = 2.28e7; activity call = inactive
CCHa2-R (CCHamide-2 receptor) #1 | calcium entry signal, replicate 1 (fluorescence units) = 1.98e7; calcium entry signal, replicate 2 (fluorescence units) = 4.99e7; resting calcium signal, replicate 1 (fluorescence units) = 1.16e7; resting calcium signal, replicate 2 (fluorescence units) = 2.14e7; activity call = inactive
CCHa2-R (CCHamide-2 receptor) #2 | calcium entry signal, replicate 1 (fluorescence units) = 4.29e7; calcium entry signal, replicate 2 (fluorescence units) = 4.29e7; resting calcium signal, replicate 1 (fluorescence units) = 2.14e7; resting calcium signal, replicate 2 (fluorescence units) = 2.03e7; activity call = inactive
CCHa2-R (CCHamide-2 receptor) #3 | calcium entry signal, replicate 1 (fluorescence units) = 4.05e7; calcium entry signal, replicate 2 (fluorescence units) = 4.64e7; resting calcium signal, replicate 1 (fluorescence units) = 2.03e7; resting calcium signal, replicate 2 (fluorescence units) = 2.23e7; activity call = inactive
Elk (Eag-like K[+] channel) | calcium entry signal, replicate 1 (fluorescence units) = 3.27e7; calcium entry signal, replicate 2 (fluorescence units) = 3.00e7; resting calcium signal, replicate 1 (fluorescence units) = 1.42e7; resting calcium signal, replicate 2 (fluorescence units) = 1.43e7; activity call = inactive
GstD3 (Glutathione S transferase D3) | calcium entry signal, replicate 1 (fluorescence units) = 3.05e7; calcium entry signal, replicate 2 (fluorescence units) = 3.01e7; resting calcium signal, replicate 1 (fluorescence units) = 1.81e7; resting calcium signal, replicate 2 (fluorescence units) = 1.69e7; activity call = inactive
CG15390 | calcium entry signal, replicate 1 (fluorescence units) = 3.55e7; calcium entry signal, replicate 2 (fluorescence units) = 3.02e7; resting calcium signal, replicate 1 (fluorescence units) = 1.58e7; resting calcium signal, replicate 2 (fluorescence units) = 1.32e7; activity call = inactive
CG4363 | calcium entry signal, replicate 1 (fluorescence units) = 4.01e7; calcium entry signal, replicate 2 (fluorescence units) = 5.87e7; resting calcium signal, replicate 1 (fluorescence units) = 1.90e7; resting calcium signal, replicate 2 (fluorescence units) = 2.41e7; activity call = inactive
CG8944 #1 | calcium entry signal, replicate 1 (fluorescence units) = 3.88e7; calcium entry signal, replicate 2 (fluorescence units) = 5.47e7; resting calcium signal, replicate 1 (fluorescence units) = 1.75e7; resting calcium signal, replicate 2 (fluorescence units) = 2.93e7; activity call = inactive
CG8944 #2 | calcium entry signal, replicate 1 (fluorescence units) = 2.55e7; calcium entry signal, replicate 2 (fluorescence units) = 3.77e7; resting calcium signal, replicate 1 (fluorescence units) = 1.29e7; resting calcium signal, replicate 2 (fluorescence units) = 1.56e7; activity call = inactive
sinu (sinuous) | calcium entry signal, replicate 1 (fluorescence units) = 3.28e7; calcium entry signal, replicate 2 (fluorescence units) = 1.95e7; resting calcium signal, replicate 1 (fluorescence units) = 1.59e7; resting calcium signal, replicate 2 (fluorescence units) = 1.09e7; activity call = inactive
corto #1 | calcium entry signal, replicate 1 (fluorescence units) = 2.26e7; calcium entry signal, replicate 2 (fluorescence units) = 4.38e7; resting calcium signal, replicate 1 (fluorescence units) = 1.07e7; resting calcium signal, replicate 2 (fluorescence units) = 1.88e7; activity call = inactive
corto #2 | calcium entry signal, replicate 1 (fluorescence units) = 2.93e7; calcium entry signal, replicate 2 (fluorescence units) = 4.48e7; resting calcium signal, replicate 1 (fluorescence units) = 1.41e7; resting calcium signal, replicate 2 (fluorescence units) = 1.97e7; activity call = inactive
corto #3 | calcium entry signal, replicate 1 (fluorescence units) = 3.13e7; calcium entry signal, replicate 2 (fluorescence units) = 5.89e7; resting calcium signal, replicate 1 (fluorescence units) = 1.54e7; resting calcium signal, replicate 2 (fluorescence units) = 2.76e7; activity call = inactive
corto #4 | calcium entry signal, replicate 1 (fluorescence units) = 4.06e7; calcium entry signal, replicate 2 (fluorescence units) = 3.01e7; resting calcium signal, replicate 1 (fluorescence units) = 2.07e7; resting calcium signal, replicate 2 (fluorescence units) = 1.39e7; activity call = inactive

Only “calcium entry signal, replicate 1 (fluorescence units)”, for 5 of the entries above:
CG4363 = 4.01e7
CG8944 #1 = 3.88e7
CG8944 #2 = 2.55e7
sinu (sinuous) = 3.28e7
corto #1 = 2.26e7
